PubChem BioAssay AID1487 (National Center for Advancing Translational Sciences (NCATS), 2009)
The list shows a part of the results. The main result of the screen is listed elsewhere. These columns were measured beside it and carry no call. The list favours compounds with an active or inconclusive main result. The note in brackets gives the kind of curve behind each potency; many fits are weak.

Assay: qHTS Assay for Modulators of Lamin A Splicing
Settings: HeLa LMNA splicing GFP/RFP minigene ratio, 48 h
How it was run: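 S3 HeLa cells stably expressing lamin A-EGFP splicing minigene plus DsRed2, 600 cells/well, 48 h compound exposure at 37C. Laser-scanning cytometry; analysed as GFP (500-530 nm)/RFP (575-640 nm) total intensity ratio; 0.5% DMSO vehicle.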

[1] = measured here: RFP viability control channel
[2] = measured here: GFP splicing reporter channel

SMILES	AC50 [1]	AC50 [2]
COc1ccc(CCn2c(N)c(S(=O)(=O)c3cccs3)c3nc4ccccc4nc32)cc1OC	17.8 µM [falling, partial curve, poor fit]	–
Cc1cccc(NC(=O)c2cc3c(=O)n4ccccc4nc3n(CC(C)C)c2=N)c1	0.00316 µM [falling, full curve, poor fit]	–
Cc1cc(O)cc(O)c1C=NCc1ccco1	22.4 µM [rising, single point]	–
CC(C)(C)c1nc(SCC(=O)NCc2ccco2)c2ccccc2n1	15.8 µM [rising, partial curve, poor fit]	11.2 µM [rising, single point]
O=C(NCC1CCCO1)c1cc(-c2ccccc2)on1 (stereo not given)	35.5 µM [falling, single point]	–
COc1cc(C(=O)NNC(=O)C2CC=CCC2C(=O)O)cc(OC)c1OC (stereo not given)	31.6 µM [rising, single point]	31.6 µM [rising, single point]
O=c1oc2ccccc2cc1NCc1ccccc1O	20 µM [rising, single point]	–
Cc1c(C(=O)NC(Cc2ccccc2)c2nc3ccccc3[nH]2)cccc1[N+](=O)[O-] (stereo not given)	3.16 µM [falling, partial curve, poor fit]	3.55 µM [falling, partial curve]
Cc1ccc(S(=O)(=O)CCC(=O)NCc2ccccc2Cl)cc1	0.0501 µM [falling, full curve, poor fit]	0.0112 µM [falling, full curve, poor fit]
Cn1c(/C(C#N)=C/c2ccncc2)nc2ccccc21	0.0224 µM [falling, full curve, poor fit]	35.5 µM [falling, partial curve, poor fit]
O=C(Nc1ccccc1Cl)c1cc[n+](Cc2ccc([N+](=O)[O-])cc2)cc1	–	3.16 µM [rising, partial curve]
O=C(/C=C/c1ccccc1[N+](=O)[O-])NCCN1C(=O)S/C(=C\c2ccc(F)cc2)C1=O	1.26 µM [falling, full curve, poor fit]	0.794 µM [falling, full curve, poor fit]
COc1ccc(CCNC(=O)c2ccc(-c3ccc([N+](=O)[O-])cc3Cl)o2)cc1OC	5.01 µM [rising, full curve]	–
CO[C@H]1C[C@@H](O[C@@H]2[C@H](C)[C@H](O[C@@H]3O[C@@H](C)C[C@@H](N(C)C)[C@@H]3O)[C@H](C)C[C@]3(CO3)C(=O)[C@H](C)[C@H](O)[C@H](C)[C@H](C)OC(=O)[C@@H]2C)O[C@@H](C)[C@H]1O	0.00158 µM [rising, full curve, poor fit]	–

Reprinted at random: 2 compounds from above
SMILES	AC50 [1]	AC50 [2]
CC(C)(C)c1nc(SCC(=O)NCc2ccco2)c2ccccc2n1	15.8 µM [rising, partial curve, poor fit]	11.2 µM [rising, single point]
Cc1cccc(NC(=O)c2cc3c(=O)n4ccccc4nc3n(CC(C)C)c2=N)c1	0.00316 µM [falling, full curve, poor fit]	–
